Values of other authors in article PMC7705649 (Scientific Reports, 2020).

System: HSA protein
Conditions: cited from earlier work

Compound | binding site on HSA protein
O=C(O)CCNC(=O)c1ccc(/N=N/c2ccc(O)c(C(=O)O)c2)cc1 [BSZ, balsalazide] | Domain IIIa
O=C(O)c1cc(/N=N/c2ccc(S(=O)(=O)Nc3ccccn3)cc2)ccc1O [SASP, sulfasalazine] | Domain IIb
Nc1ccc(O)c(C(=O)O)c1 [MSZ, mesalazine] | Domain IIIa
Nc1nc(=O)c2nc(CNc3ccc(C(=O)N[C@@H](CCC(=O)O)C(=O)O)cc3)cnc2[nH]1 [FA, folic acid] | Domain I
